## Cleaved PARP in drug-treated melanoma cells

Data from the primary screen of doi:10.1371/journal.pone.0140310, rounded.

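The test systems are human melanoma cell lines, treated with two drugs together for 72 h and then stained and imaged. Values are the share of nuclei positive for cleaved PARP as a percentage of the same share in the DMSO control: 100 is the control level, higher means more apoptosis. Every drug was used at one fixed concentration, the higher of two screened. These are primary screening values without error estimates. The marker varies much from line to line, for technical or biological reasons.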 Only some of the drugs and lines screened are listed, without regard to their results. A dash means that no value is listed here.

Compounds and concentrations:
CP-690550: C[C@@H]1CCN(C(=O)CC#N)C[C@@H]1N(C)c1ncnc2[nH]ccc12 at 5000 nM
MK-1775: C=CCn1c(=O)c2cnc(Nc3ccc(N4CCN(C)CC4)cc3)nc2n1-c1cccc(C(C)(C)O)n1 at 100 nM
lenalidomide: Nc1cccc2c1CN(C1CCC(=O)NC1=O)C2=O (configuration not stated) at 5000 nM
FH535: Cc1cc([N+](=O)[O-])ccc1NS(=O)(=O)c1cc(Cl)ccc1Cl at 5000 nM
OSI-906: C[C@]1(O)C[C@@H](c2nc(-c3ccc4ccc(-c5ccccc5)nc4c3)c3c(N)nccn32)C1 at 2000 nM
GW441756: Cn1cc(/C=C2\C(=O)Nc3cccnc32)c2ccccc21 at 2000 nM
vorinostat: O=C(CCCCCCC(=O)Nc1ccccc1)NO at 400 nM
GW0742: Cc1cc(SCc2sc(-c3ccc(C(F)(F)F)c(F)c3)nc2C)ccc1OCC(=O)O at 10000 nM

Pair,RVH-421,SK-MEL-2,A375,IST-MEL1,MZ2-MEL,SK-MEL-28
FH535 and GW0742,56.9,161,123,66.6,136,205
lenalidomide and GW441756,43.6,22.4,74.6,26.6,106,50.3
GW0742 and GW441756,133,30.0,364,127,90.7,53.8
MK-1775 and CP-690550,109,79.0,-,221,98.6,180
GW0742 and MK-1775,39.3,129,224,56.8,184,441
GW441756 and OSI-906,73.8,-,98.5,173,-,87.1
OSI-906 and lenalidomide,120,215,119,102,110,87.7
OSI-906 and vorinostat,188,179,-,73.9,224,118
OSI-906 and MK-1775,95.2,217,-,121,86.9,245
vorinostat and FH535,104,132,119,119,147,61.5
vorinostat and GW0742,79.3,58.8,18.1,42.9,22.7,169
GW0742 and CP-690550,76.6,192,125,120,291,218
CP-690550 and OSI-906,66.3,85.7,-,75.4,-,126
lenalidomide and GW0742,156,190,36.9,99.4,79.2,332
OSI-906 and GW0742,23.8,36.3,182,147,81.5,45.6
GW441756 and FH535,178,76.5,51.3,176,51.5,144
MK-1775 and vorinostat,107,159,-,63.2,193,202
GW441756 and MK-1775,36.7,35.2,98.1,90.1,39.5,243
lenalidomide and MK-1775,26.4,102,-,38.2,154,175
FH535 and CP-690550,66.6,46.8,320,268,28.4,118
lenalidomide and vorinostat,109,181,-,134,180,234